The numbers were not newly measured in US4595757A, “N-alkylated benzo- and hetero-fused antisecretory agents” (American Home Products Corporation, priority 1984, dated 1986), which cites them from elsewhere.

SMILES strings stand for the structures.

This data set relates to (H^+ +K^+)ATPase. To be noted: Fellenius, Nature 220, 159-160 (1981); cited from earlier work.

As for `CN1[C@@H]2CC[C@H]1C[C@@H](OC(=O)C(CO)c1ccccc1)C2` (stereo partly shown) [atropine], the “inhibition of proton transport by inhibition of (H^+ +K^+)ATPase” value is listed as “devoid of this activity”.
